Data from PubChem BioAssay AID540276 (National Center for Advancing Translational Sciences (NCATS), 2011).
Where “and” joins values, the source holds several entries; their conditions need not be identical. Identical values can stand only once. Hit rate of the full screen: of about 300,000 compounds, about 5,400 (1.8%) were called active. The inconclusive results got no clear call from the source; some entries with a clear call stand among them for comparison. Calls follow the shape of the full dose curve; tested in HEK293 cells. Potencies beside an inconclusive call are fits to weak or partial responses and may not hold up. Residues, ends and D or L forms follow the SMILES beside them. *: point of attachment. Cbz = O=C(OCc1ccccc1)*

Experiment: qHTS for inhibitors of binding or entry into cells for Marburg Virus
Conditions: Marburg virus pseudotyped entry inhibition, cell reporter; activity change, negative = inhibition: at 37.8 µM (top of the series) unless noted
% is scaled to controls: 0 for no effect and ±100 for the full control effect; potency is read from the fitted curve at half-maximal effect.

| SMILES | Potency | activity change, negative = inhibition |
| --- | --- | --- |
| Cc1ccc(CN2CCN(Cc3cn(C(C)C)c4ccccc34)CC2CCO)o1 (stereo not drawn) | inconclusive: 11.2 µM [inhibitor, partial curve, poor fit] | – |
| c1cncc(C2CC(c3cccs3)n3ncnc3N2)c1 (stereo not drawn) | inconclusive: 5.62 µM [activator, partial curve] | – |
| CCCN(CCC)c1nc(NC2CCN(C(=O)OCC)CC2)nc(OC)n1 | inconclusive: 25.1 µM [inhibitor, single point] | – |
| COc1ccc(/C=N/Nc2nccnc2Cl)cc1 | inconclusive: 7.3 µM [inhibitor, partial curve, poor fit] | – |
| O=C1Nc2ccccc2/C1=C/c1nc2ccccc2c(=O)n1-c1ccc(O)cc1 | inconclusive: 8.91 µM [inhibitor, partial curve, poor fit] | – |
| CC(=O)c1ccc(OCCCC(=O)Nc2ccc(C)c(S(=O)(=O)N3CCCCC3)c2)cc1 | inconclusive: 7.94 µM [inhibitor, partial curve, poor fit] | – |
| COc1ccc(N2CCN(C(=O)c3cn(C4CCCCC4)c(=O)c4c3c3ccccc3n4C)CC2)cc1 | inconclusive: 25.1 µM [inhibitor, partial curve, poor fit] | – |
| Cc1c(/C=N\NC(=O)C2(C)CC2(Cl)Cl)cnn1C (stereo not drawn) | inconclusive: 5.62 µM [activator, single point] | – |
| CCOC(=O)C1CCN(C(c2cc3ccc(C)c(C)c3[nH]c2=O)c2nnnn2C2CCCCC2)CC1 (stereo not drawn) | inconclusive: 25.9 µM [inhibitor, single point] | – |
| COC(=O)c1cc(OC)c(OC)cc1NC(=O)CN1CCCCC1 | inconclusive: 4.11 µM [inhibitor, single point] | – |
| O=C(CCNS(=O)(=O)c1cccc2nonc12)Nc1ccc(F)cc1 | inconclusive: 14.1 µM [activator, single point] | – |
| CCOC(=O)Cn1nnnc1CN(Cc1cccs1)Cc1cc2cc(C)ccc2[nH]c1=O | – | inactive: -22% |
| COc1ccccc1C(=O)N1CCCC(c2nc(-c3cc(OC)c(OC)c(OC)c3)no2)C1 (stereo not drawn) | inconclusive: 6.31 µM [inhibitor, partial curve, poor fit] | – |
| COc1cc(C2C(C#N)=C(C)NC3=C2C(=O)c2ccccc23)cc(OC)c1OC (stereo not drawn) | inconclusive: 1.3 µM [inhibitor, full curve, poor fit] | – |
| Cc1occc(=O)c1OCc1c(F)cccc1Cl | inconclusive: 0.562 µM [inhibitor, full curve, poor fit] | – |
| Cc1ccc(Nc2cccc(C(F)(F)F)c2)nn1 | inconclusive: 11.2 µM [activator, single point] | – |
| Cc1cccc(CCNS(=O)(=O)c2cnc[nH]2)c1 | inconclusive: 2.82 µM [activator, single point] | – |
| CCOc1ccc(NC(=O)CSc2ccc3ccccc3n2)cc1 | – | inactive: -1.98% [at 46.1 µM] |
| Cc1cccc(C(=O)Nc2ccc(C)c(OC(=O)c3cccc(C)c3)c2)c1 | – | inactive: 3.65% |
| Cc1cccc(C(=O)c2cnc3ccccc3c2-c2ccccc2)c1 | inconclusive: 29.1 µM [inhibitor, single point] | – |
| CCOc1ccc2[nH]c(C(=O)N/N=C/c3ccc(OC)cc3)cc2c1 | inconclusive: 0.316 µM [inhibitor, full curve, poor fit] | – |
| COc1ccc(CN(C)CC(=O)Nc2ccc(N3CCOCC3)cc2)cc1OC | inconclusive: 35.5 µM [inhibitor, single point] | – |
| CC1CC2(CCCCC2)N2C(=O)C(=O)c3cccc1c32 (stereo not drawn) | inconclusive: 14.6 µM [inhibitor, partial curve, poor fit] | – |

| SMILES | Potency | activity change, negative = inhibition |
| --- | --- | --- |
| COc1ccc(C)cc1NC(=O)CN1CCCN(S(=O)(=O)c2ccc(Br)cc2)CC1 | inconclusive: 562 nM [activator, full curve, poor fit] and inconclusive: 14.1 µM [inhibitor, partial curve, poor fit] | – |
| Cc1cc(C)c2nc(NC(=O)c3cccc(S(=O)(=O)N4CCc5ccccc54)c3)sc2c1 | inconclusive: 6.31 µM [inhibitor, single point] | – |
| FC(F)(F)Oc1ccc(NC(=S)NCc2ccccc2)cc1 | active: 11.2 µM | – |
| CCOC(=O)c1[nH]nc(C(=O)c2ccc(Br)cc2)c1O | – | inactive: -0.207% |
| O=c1c(Cc2ccc(F)cc2)c(O)ccn1Cc1ccco1 | inconclusive: 3.98 µM [inhibitor, single point] | – |
| Cc1cc(C(=O)Nc2c(C)n(C)n(-c3ccccc3)c2=O)c2ccccc2n1 | – | inactive: 12.1% |
| Cc1ccc(-c2csc(N3CCN(c4cc5c(cc4Cl)nc(-c4ccncc4)n5CCN4CCCCC4)CC3)n2)cc1 | – | inactive: -0.88% |
| Cn1cc(C(=O)N2CCN(c3cccc(Cl)c3)CC2)c(=O)c2cc(S(=O)(=O)N3CCCC3)ccc21 | – | inactive: -3.88% [at 46.1 µM] |
| COc1cc(/C=N/OCC(=O)NC2CCCCC2C)ccc1OCc1ccc(Cl)cc1 (stereo not drawn) | inconclusive: 11.2 µM [inhibitor, single point] | – |
| CC(C)[C@H](NC(=O)OCc1ccccc1)C(=O)N[C@H](C=O)Cc1ccccc1 (Cbz-Val-Phe-aldehyde) | active: 1.58 µM and active: 651 nM | – |
| Cc1ccc2c(CN3CCN(Cc4ccc5c(c4)OCO5)CC3)cc(=O)oc2c1C | inactive | – |
| N#CC(c1ccccc1)c1ccc(=O)[nH]n1 (stereo not drawn) | inconclusive: 35.5 µM [activator, single point] | – |
| O=C(Nc1ccc(Br)cc1)c1ccc(CSC2=NCCS2)cc1 | – | inactive: -29.6% |
| CCOC(=O)CSc1nc(N)c(C#N)c(-c2ccc(OC)cc2)c1C#N | inactive | – |
| CCCCCCN1C(=O)CC[C@@]23C1=NC(C(=O)OC)=C(C(=O)OC)[C@@H]2N(Cc1ccccc1)c1ccccc13 | – | inactive: -28.3% [at 14.2 µM] |
| CC(C)(CC(=O)O)CC(=O)NNc1ncccc1C#N | – | inactive: 26.4% [at 46.1 µM] |
| O=C(O)C1C2C=CC(C2)C1C(=O)NCCc1ccncc1 (stereo not drawn) | inconclusive: 31.6 µM [activator, single point] | – |
| Cc1cc(N/N=C/c2ccc([N+](=O)[O-])o2)nc2ccccc12 | inconclusive: 0.316 µM [inhibitor, full curve, poor fit] | – |
| Cc1cc(C)nc(/N=C(\N)Nc2ccc(OCc3ccccc3)cc2)n1 | inconclusive: 1.26 µM [inhibitor, full curve, poor fit] | – |
| Cc1scc(-c2n[nH]c(=S)n2C(C)c2ccccc2)c1C (stereo not drawn) | inconclusive: 1.58 µM [inhibitor, partial curve, poor fit] | – |
| CC(=O)Nc1scc(-c2ccccc2)[n+]1-c1ccc(C)cc1 | – | inactive: -15.3% [at 46.1 µM] |
| COCCCNC(=O)c1ccc(CSCc2ccc(C)cc2)o1 | inconclusive: 14.1 µM [activator, single point] | – |
| O=C(COc1ccc(Cl)cc1)N(Cc1ccccc1)c1ccccn1 | inconclusive: 35.5 µM [activator, single point] | – |

| SMILES | Potency | activity change, negative = inhibition |
| --- | --- | --- |
| O=C(c1ccccc1NS(=O)(=O)c1cccc(C(F)(F)F)c1)N1CCc2ccccc21 | inconclusive: 29.1 µM [activator, single point] | – |
| COCCN(C(=S)Nc1ccccc1C)C(C)c1cccs1 (stereo not drawn) | – | inactive: 16.2% |
| COc1ccc(C(=O)NN/C(=N/S(=O)(=O)c2ccc(C)cc2)c2ccccc2)cc1 | inconclusive: 8.2 µM [inhibitor, partial curve, poor fit] | – |
| Cn1c(SCC(=O)c2ccc(O)cc2O)nnc1-c1ccccc1 | inconclusive: 0.891 µM [activator, full curve, poor fit] | – |
| Cc1ccc2c(c1)N(CCC(=O)NCC1COc3ccccc3O1)C(=O)CO2 (stereo not drawn) | – | inactive: -20.5% |
| NC(=S)c1ccc[n+]([C@@H]2O[C@@H](COP(=O)([O-])OP(=O)(O)OC[C@H]3O[C@@H](n4cnc5c(N)ncnc54)[C@H](OP(=O)(O)O)[C@@H]3O)C(O)C2O)c1 (stereo partly drawn) | – | inactive: 22.8% |
| CC(C)c1cc2cc3ccc(=O)oc3cc2o1 | inconclusive: 20 µM [activator, single point] | – |
| CCN(CC)CCNC(=O)C(C(=O)c1ccccc1)n1ccccc1=O (stereo not drawn) | inconclusive: 6.51 µM [inhibitor, single point] | – |
| COC(=O)c1ccccc1NC(=O)COC(=O)/C=C/c1cccs1 | – | inactive: -9.16% |
| Cc1ccnc(NC(=O)c2ccccc2[N+](=O)[O-])c1 | – | inactive: 3.06% |
| Clc1ccccc1CNc1nc2ccccc2c2nc(-c3ccccc3)nn12 | inconclusive: 35.5 µM [activator, single point] | – |
| Cc1ccc(N2C(=O)CC(NCc3ccc4c(c3)OCO4)C2=O)cc1Cl (stereo not drawn) | inconclusive: 12.6 µM [activator, partial curve] | – |
| CC(=O)NCCc1nc2ccccc2n1CCc1ccccc1 | inconclusive: 35.5 µM [inhibitor, single point] | – |
| O=C(Nc1ccccc1)c1cnc2ccccc2n1 | – | inactive: 28.2% |
| CC(C)Oc1ccc(CNC(=O)c2ccc3c(c2)N(Cc2ccc(F)cc2)CCS3)cc1 | inconclusive: 35.5 µM [inhibitor, single point] | – |
| COc1ccc(Br)cc1C(=O)Nc1cccc(-c2nnc(-c3ccco3)o2)c1 | active: 20.6 µM | – |
| CN1CCN(C(=O)Nc2ccccc2)CC1 | – | inactive: 29.2% [at 46.1 µM] |
| Cc1ccc(OCC(=O)N2CCOCC2)cc1C | inconclusive: 6.31 µM [activator, single point] | – |
| Cc1noc(C)c1C1(O)CCCCCCCCCCC1 | inconclusive: 3.55 µM [inhibitor, single point] | – |
| CC1=C(C(N)=O)C(c2cccs2)n2nc(-c3cccc(C)c3)nc2N1 (stereo not drawn) | – | inactive: -11.4% |
| O=C(Nc1cccc(Cl)c1)C(Cc1ccccc1)n1cccc1 (stereo not drawn) | inconclusive: 0.631 µM [inhibitor, full curve, poor fit] | – |
| O=C(Nc1ccccc1)c1cc2ccc3ccccc3c2s1 | inconclusive: 1.26 µM [activator, partial curve, poor fit] | – |
